PubChem BioAssay AID1259307 | Sanger Institute, 2017
The deposit covers 794 reagents; this is a part drawn at random. In the full data, 15 (1.9%) were called active. 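Calls reflect lethality without any drug; synergy scores did not enter the calls.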 Unmarked entries are inactive. Further read-outs or replicates are left out here. Not given: the amount of reagent, the time to read-out.

- Purpose: 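Identify kinases needed for SW620 growth or enhancing BYL719, cetuximab or trametinib effects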 (primary screen)
- System: SW620 colorectal cancer cells
- Reagents: siRNA pool against human genes
- Conditions: anchor drugs BYL719 at 1 µM, cetuximab at 5 µg/ml or trametinib at 10 nM, each beside a DMSO vehicle arm
- Read-out: 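Cell viability in each well relative to non-targeting controls, averaged over replicates and turned into a robust z-score; synergy with BYL719 (1 µM), cetuximab (5 µg/ml), trametinib (10 nM) versus DMSO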
- Direction: viability robust z-score, no drug: higher = more viable cells
- Active means: 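a knock-down counts as lethal alone if its drug-free robust viability z-score is lower than -3, regardless of synergy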
- Calls: active = essential (lethal alone); inactive = no change alone

PRKAG1 (protein kinase AMP-activated non-catalytic subunit gamma 1)
- viability robust z-score, no drug: -0.105

STK39 (serine/threonine kinase 39)
- viability robust z-score, no drug: -2.76

AKAP9 (A-kinase anchoring protein 9)
- viability robust z-score, no drug: -0.286

AAK1 (AP2 associated kinase 1)
- viability robust z-score, no drug: -0.984

STK24 (serine/threonine kinase 24)
- viability robust z-score, no drug: 0.736

MARK4 (microtubule affinity regulating kinase 4)
- viability robust z-score, no drug: 0.736

TEK (TEK receptor tyrosine kinase)
- viability robust z-score, no drug: 0.736

NRBP2 (nuclear receptor binding protein 2)
- viability robust z-score, no drug: -0.126

WNK1 (WNK lysine deficient protein kinase 1)
- viability robust z-score, no drug: 0.736

CNOT1 (CCR4-NOT transcription complex subunit 1)
- viability robust z-score, no drug: -3.41 (active)

RIPK3 (receptor interacting serine/threonine kinase 3)
- viability robust z-score, no drug: 0.736

Continued (3 carried over from the part before).
WNK1 (WNK lysine deficient protein kinase 1)
- viability robust z-score, no drug: 0.736

CNOT1 (CCR4-NOT transcription complex subunit 1)
- viability robust z-score, no drug: -3.41 (active)

RIPK3 (receptor interacting serine/threonine kinase 3)
- viability robust z-score, no drug: 0.736

UHMK1 (U2AF homology motif kinase 1)
- viability robust z-score, no drug: 0.736

CDKN1A (cyclin dependent kinase inhibitor 1A)
- viability robust z-score, no drug: 0.736

MAP2K6 (mitogen-activated protein kinase kinase 6)
- viability robust z-score, no drug: 0.736

IP6K3 (inositol hexakisphosphate kinase 3)
- viability robust z-score, no drug: -0.579

STK32B (serine/threonine kinase 32B)
- viability robust z-score, no drug: -1.76

VRK2 (VRK serine/threonine kinase 2)
- viability robust z-score, no drug: 0.403

AK4 (adenylate kinase 4)
- viability robust z-score, no drug: 0.607

PIK3C2A
- viability robust z-score, no drug: 0.573

PACSIN1 (protein kinase C and casein kinase substrate in neurons 1)
- viability robust z-score, no drug: 0.736

RIPK4 (receptor interacting serine/threonine kinase 4)
- viability robust z-score, no drug: 0.0973

SMG1
- viability robust z-score, no drug: 0.0525

CMPK1 (cytidine/uridine monophosphate kinase 1)
- viability robust z-score, no drug: 0.736

NEK5 (NIMA related kinase 5)
- viability robust z-score, no drug: -0.965

MAPK1 (mitogen-activated protein kinase 1)
- viability robust z-score, no drug: -1.54

TTBK2 (tau tubulin kinase 2)
- viability robust z-score, no drug: -0.145

CDK7 (cyclin dependent kinase 7)
- viability robust z-score, no drug: 0.736

CREBBP (CREB binding lysine acetyltransferase)
- viability robust z-score, no drug: -0.0881
